The entries are a selection whose mix differs from that of the whole data set. For part of these data: At the low end of the ranking the order means little. The list shows a part of the results. For part of these data: The source does not settle which construct or isoform was used.
Columns and labels:
Experiment in all cases: DAPPL (digital affinity profiling via proximity ligation, sequencing)
Details in all cases: 10 mM Tris-HCl pH 7.5, 50 mM NaCl, 1 mM DTT, 4% glycerol, room temperature, 30 min; GST-TFs on glutathione beads, 16-mer random dsDNA library, 0.1% …; high values mean tight binding; double strand, one strand shown; scale: fold enrichment (6-mer frequency, TF over GST control)
ERG = biological target: T1, ERG (UniProt P11308)
T1 sequence: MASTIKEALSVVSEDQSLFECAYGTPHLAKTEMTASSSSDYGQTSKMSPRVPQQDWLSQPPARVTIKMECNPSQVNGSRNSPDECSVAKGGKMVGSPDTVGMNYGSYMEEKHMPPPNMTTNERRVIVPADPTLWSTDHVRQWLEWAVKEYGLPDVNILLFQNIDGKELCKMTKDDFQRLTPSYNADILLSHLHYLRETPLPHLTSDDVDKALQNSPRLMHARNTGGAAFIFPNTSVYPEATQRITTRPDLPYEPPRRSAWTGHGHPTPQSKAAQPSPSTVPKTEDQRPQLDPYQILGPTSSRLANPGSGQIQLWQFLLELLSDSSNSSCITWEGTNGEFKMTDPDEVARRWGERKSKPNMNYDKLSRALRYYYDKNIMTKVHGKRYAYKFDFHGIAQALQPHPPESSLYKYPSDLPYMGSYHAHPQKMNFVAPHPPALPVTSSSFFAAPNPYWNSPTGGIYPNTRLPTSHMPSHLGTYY

Chains of the proteins cited; added tags and fusions are not shown. Lines headed by an entry give the natural chain unless they say otherwise; changes in a name come on top.
UniProt P50549: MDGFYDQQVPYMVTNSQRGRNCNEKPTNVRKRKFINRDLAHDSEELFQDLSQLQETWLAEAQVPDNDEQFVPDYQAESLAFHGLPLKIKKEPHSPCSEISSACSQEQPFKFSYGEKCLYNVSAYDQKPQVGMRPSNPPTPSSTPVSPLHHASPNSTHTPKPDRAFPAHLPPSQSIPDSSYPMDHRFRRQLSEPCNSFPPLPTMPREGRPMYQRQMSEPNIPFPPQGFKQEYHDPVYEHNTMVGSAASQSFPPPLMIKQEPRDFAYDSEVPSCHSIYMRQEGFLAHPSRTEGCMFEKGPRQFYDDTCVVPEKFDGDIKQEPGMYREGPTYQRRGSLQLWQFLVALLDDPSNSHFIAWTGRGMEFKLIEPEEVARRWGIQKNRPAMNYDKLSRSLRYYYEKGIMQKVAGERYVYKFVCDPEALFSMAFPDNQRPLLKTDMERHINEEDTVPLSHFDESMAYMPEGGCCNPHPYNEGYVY

ETV4 = biological target: T2, ETV4 (UniProt P43268)
T2 sequence: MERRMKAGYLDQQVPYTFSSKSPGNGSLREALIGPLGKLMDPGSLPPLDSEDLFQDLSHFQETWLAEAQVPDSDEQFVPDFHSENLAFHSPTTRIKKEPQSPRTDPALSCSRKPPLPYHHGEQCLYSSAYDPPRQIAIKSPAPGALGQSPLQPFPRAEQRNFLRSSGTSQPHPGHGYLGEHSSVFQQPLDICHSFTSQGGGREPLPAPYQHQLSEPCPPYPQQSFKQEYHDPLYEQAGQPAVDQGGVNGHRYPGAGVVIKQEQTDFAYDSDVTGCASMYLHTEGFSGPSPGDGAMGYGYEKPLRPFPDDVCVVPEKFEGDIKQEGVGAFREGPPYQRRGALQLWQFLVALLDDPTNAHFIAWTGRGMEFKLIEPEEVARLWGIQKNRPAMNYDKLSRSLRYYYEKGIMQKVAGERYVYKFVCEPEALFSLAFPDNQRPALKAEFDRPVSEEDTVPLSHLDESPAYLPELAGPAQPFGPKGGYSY

ETV1 = ETV1 (UniProt P50549)
ERF = biological target: T3, ERF (UniProt P50548)
T3 sequence: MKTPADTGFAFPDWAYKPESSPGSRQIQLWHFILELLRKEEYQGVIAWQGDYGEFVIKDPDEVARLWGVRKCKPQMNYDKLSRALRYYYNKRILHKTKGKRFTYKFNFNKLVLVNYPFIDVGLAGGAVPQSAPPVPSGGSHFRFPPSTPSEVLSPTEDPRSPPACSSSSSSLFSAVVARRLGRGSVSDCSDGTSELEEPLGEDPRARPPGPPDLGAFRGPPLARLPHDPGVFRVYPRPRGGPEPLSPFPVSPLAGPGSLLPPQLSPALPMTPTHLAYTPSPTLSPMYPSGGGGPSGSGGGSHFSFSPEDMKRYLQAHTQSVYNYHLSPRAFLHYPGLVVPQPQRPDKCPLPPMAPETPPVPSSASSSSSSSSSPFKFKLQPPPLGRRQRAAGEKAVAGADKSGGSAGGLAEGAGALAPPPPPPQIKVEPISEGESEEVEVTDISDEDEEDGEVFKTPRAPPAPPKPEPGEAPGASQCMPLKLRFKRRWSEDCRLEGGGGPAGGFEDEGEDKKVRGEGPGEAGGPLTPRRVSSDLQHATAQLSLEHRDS

Row | Sequence | binding signal (ERG) | binding signal (ETV4) | binding signal (ETV1) | binding signal (ERF)
1 | ACCACA | 0.977 | 1.06 |  | 
2 | CTCATC | 1.34 | 1.44 |  | 
3 | TACCCC | 1.07 | 1.06 |  | 
4 | ATACTT | 1.68 | 1.69 |  | 
5 | CTATCA | 0.99 | 1.06 |  | 
6 | TCTGGT | 1.33 | 1.32 |  | 
7 | CTAAAT | 1.34 | 1.27 |  | 
8 | GATCCA | 1.03 | 1.07 |  | 
9 | TTCTAC | 1.53 | 1.52 |  | 
10 | ATCCCG | 1.44 | 1.34 |  | 
11 | CCTTTA | 1.21 | 1.3 |  | 
12 | TGATGT | 1.13 | 1.21 |  | 
13 | TAATTC | 1.48 | 1.28 |  | 
14 | CCACAC | 1.07 | 1.11 |  | 
15 | GGTAAT | 1.08 | 1.09 |  | 
16 | CCGTTT | 1.57 | 1.43 |  | 
17 | AAATGC | 1.3 | 1.21 |  | 
18 | ACTCAT | 1.16 | 1.43 |  | 
19 | TAGAAA | 1.04 | 1.01 |  | 
20 | ACAGGA | 1.22 | 1.08 |  | 
21 | GCAATG | 1 | 0.998 |  | 
22 | CTGCTG | 1.11 | 1.42 |  | 
23 | TGGCCG | 1.19 | 1.06 |  | 
24 | CTGTAT | 1.18 | 1.19 |  | 

Pulled one by one from the entries so far (3):
Row | Sequence | binding signal (ERG) | binding signal (ETV4) | binding signal (ETV1) | binding signal (ERF)
23 | TGGCCG | 1.19 | 1.06 |  | 
16 | CCGTTT | 1.57 | 1.43 |  | 
20 | ACAGGA | 1.22 | 1.08 |  | 

Following part.

Row | Sequence | binding signal (ERG) | binding signal (ETV4) | binding signal (ETV1) | binding signal (ERF)
25 | CCTCTG | 1.62 | 1.56 |  | 
26 | TTGTTT | 1.6 | 1.52 |  | 
27 | TAGCGA | 0.972 | 1.09 |  | 
28 | GGACCT | 1.33 | 1.39 |  | 
29 | CATGTA | 0.961 | 1.06 |  | 
30 | TAGCTG | 1.11 | 1.19 |  | 
31 | ACCGCA | 1.11 | 1.22 |  | 
32 | CCCGTA | 1.2 | 1.14 |  | 
33 | AATACC | 1.21 | 1.2 |  | 
34 | GCCTTA | 1.21 | 1.18 |  | 
35 | ACGGTA | 0.972 | 0.933 |  | 
36 | TTGGTA | 1.13 | 1.2 |  | 
37 | GTTTGA | 1.12 | 1.18 |  | 
38 | TTTCCC | 1.88 | 1.58 |  | 
39 | TTGTGC | 1.23 | 1.35 |  | 
40 | CCCTAG | 0.96 | 1.06 |  | 
41 | CAAGTT | 1.08 | 1.04 |  | 
42 | TTATAT | 1.4 | 1.25 |  | 
43 | GTATAC | 1.24 | 1.25 | 1.31 | 
44 | ATTTGT | 1.28 | 1.45 |  | 
45 | TATACC | 1.2 | 1.2 |  | 
46 | AGCAAA | 0.991 | 1.02 |  | 
47 | GATTAA | 0.963 | 1.04 | 0.965 | 
48 | ACTACA | 1.16 | 1.19 |  | 

A different layout for part of the listing above.
Row	Sequence	binding signal (ERG)	binding signal (ETV4)	binding signal (ETV1)	binding signal (ERF)
28	GGACCT	1.33	1.39		
29	CATGTA	0.961	1.06		
30	TAGCTG	1.11	1.19		
31	ACCGCA	1.11	1.22		
32	CCCGTA	1.2	1.14		

Later entries.

Row | Sequence | binding signal (ERG) | binding signal (ETV4) | binding signal (ETV1) | binding signal (ERF)
49 | TTAATC | 1.17 | 1.19 |  | 
50 | TCATGG | 1.15 | 1.14 | 0.977 | 
51 | ATGTTT | 1.39 | 1.43 |  | 
52 | CATTAC | 1.06 | 1.2 | 1.18 | 
53 | ATATAG | 1.19 | 1.05 | 1.17 | 
54 | CCTTCC | 3.03 | 2.57 | 2.55 | 
55 | TTCGAT | 1.43 | 1.34 |  | 
56 | TCACCA | 1.14 | 1.21 |  | 
57 | TCGACG | 1.04 | 1.02 |  | 
58 | TTCCGA | 1.66 | 1.49 | 1.63 | 
59 | CTTGAA | 1.12 | 1.18 |  | 
60 | AGATAA | 0.992 | 0.976 | 1.04 | 
61 | TCAAGC | 1.01 | 0.994 | 0.955 | 
62 | ATCACG | 0.945 | 1.09 | 1.02 | 
63 | CTCGCA | 1.29 | 1.3 |  | 
64 | CGTAAC | 1.07 | 1.08 |  | 
65 | TCATAT | 1.2 | 1.27 |  | 
66 | GCTAGT | 0.961 | 1.03 | 1.02 | 
67 | CTTCCC | 2.19 | 2.13 |  | 
68 | CCTCAG | 1.21 | 1.32 |  | 
69 | CTTACT | 1.27 | 1.27 |  | 
70 | CTTTAG | 1.12 | 1.2 |  | 
71 | TTTGTT | 1.28 | 1.35 |  | 
72 | ATCTTA | 1.09 | 1.05 |  | 

Row | Sequence | binding signal (ERG) | binding signal (ETV4) | binding signal (ETV1) | binding signal (ERF)
73 | TCACCG | 1.14 | 1.21 |  | 
74 | CGGTCT | 1.18 | 1.25 |  | 
75 | CCGCCA | 1.3 | 1.23 | 1.32 | 
76 | CTGGTC | 1.2 | 1.15 |  | 
77 | CTACAT | 1.32 | 1.39 |  | 
78 | CGCTTA | 1.15 | 1.12 | 1.24 | 
79 | AAGCCC | 0.969 | 1.11 | 1.06 | 
80 | GCTGCA | 0.948 | 1.12 | 0.954 | 
81 | ACTTGA | 0.996 | 1.02 | 1.07 | 
82 | TCATTG | 0.938 | 0.941 | 0.946 | 
83 | ACCTAG | 0.998 | 0.97 | 0.985 | 
84 | GTTATC | 1.1 | 1.09 | 0.962 | 
85 | ATGTGG | 1.21 | 1.22 | 1.12 | 
86 | CCTCAA | 1.26 | 1.47 | 1.42 | 
87 | TAAACC | 1.21 | 1.21 | 1.23 | 
88 | CCAACC | 1.09 | 1.13 | 1.04 | 
89 | AAGCGC | 1.13 | 1.14 | 1.09 | 
90 | CGCGAA | 0.99 | 0.989 | 0.987 | 
91 | TCTACC | 1.61 | 1.67 | 1.57 | 
92 | GTATTG | 0.998 | 1.06 | 0.991 | 
93 | CGTTCC | 1.45 | 1.42 | 1.47 | 
94 | TAGTTG | 0.961 | 1.02 | 0.904 | 
95 | GTATGG | 0.975 | 1.02 | 1.16 | 
96 | GTCTAA | 1.09 | 1.1 | 1.11 | 

Row | Sequence | binding signal (ERG) | binding signal (ETV4) | binding signal (ETV1) | binding signal (ERF)
97 | TAGAAT | 1.03 | 1.06 | 0.978 | 
98 | TCAAAC | 1.26 | 1.23 | 1.29 | 
99 | TAACGC | 1.17 | 1.16 | 1.12 | 
100 | CTTGGC | 1.12 | 1.2 | 1.15 | 
101 | TAGTGC | 0.96 | 1 | 1.09 | 
102 | CTCTAT | 1.17 | 1.18 | 1.13 | 
103 | CATTAG | 0.963 | 1 | 0.905 | 
104 | GCAAAC | 0.983 | 1.02 | 1.03 | 
105 | CGCACC | 0.909 | 0.936 | 0.945 | 
106 | TGCCTA | 0.999 | 1.07 | 0.999 | 
107 | TCTAAC | 1.22 | 1.21 | 1.16 | 
108 | AAAGAT | 1.21 | 1.21 | 1.27 | 
109 | TAACGT | 0.992 | 1.06 | 0.997 | 
110 | CGAATG | 0.907 | 1.02 | 0.986 | 
111 | TGTCTG | 1.05 | 1.19 | 1.04 | 
112 | TTCCAT | 1.25 | 1.31 | 1.25 | 
113 | GTAGCA | 0.99 | 1.08 | 1.11 | 
114 | TTCTAG | 1.33 | 1.3 | 1.2 | 
115 | CATCCA | 0.924 | 0.963 | 0.96 | 
116 | CCCGGC | 1.15 | 1.11 | 1.19 | 
117 | GTGCCT | 0.995 | 1.02 | 0.899 | 
118 | GATCTA | 0.943 | 1.04 | 0.967 | 1.04
119 | TCGCGG | 0.946 | 0.984 | 0.963 | 
120 | ACGCGC | 0.92 | 1.16 | 0.997 | 0.968
